PubChem BioAssay AID1159584 – Peter MacCallum Cancer Centre, 2016
The deposit covers about 18,000 reagents; this is an unselected part. Not all columns of the deposit are shown. Not given: the amount of reagent, the time to read-out.

Aim: 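Genes whose loss is lethal only together with E-cadherin loss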 (primary screen)
Cells: human MCF10A breast epithelial cells, parental and CDH1-null
Knock-down reagent: siRNA against human genes
Detection: 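ATP luminescence (CellTiter-Glo) viability per line relative to mean mock wells over all plates, and the ratio of CDH1-null to parental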
Scale: CDH1-null / parental viability ratio: higher = CDH1-null cells survive relatively better than parental; CDH1-null viability vs mock: higher = more viable CDH1-null cells
Units: CDH1-null viability vs mock in fraction of mock

IFI27L2
- CDH1-null / parental viability ratio: 1.33
- CDH1-null viability vs mock: 0.72

JAG2
- CDH1-null / parental viability ratio: 0.95
- CDH1-null viability vs mock: 0.7

RBMY1B
- CDH1-null / parental viability ratio: 1.01
- CDH1-null viability vs mock: 1.05

VN1R4
- CDH1-null / parental viability ratio: 1.51
- CDH1-null viability vs mock: 1.06

PLEKHM1P1
- CDH1-null / parental viability ratio: 1.03
- CDH1-null viability vs mock: 0.74

SYT11
- CDH1-null / parental viability ratio: 1.6
- CDH1-null viability vs mock: 0.8

SLC17A6
- CDH1-null / parental viability ratio: 0.98
- CDH1-null viability vs mock: 1.06

TSPY2
- CDH1-null / parental viability ratio: 0.82
- CDH1-null viability vs mock: 0.46

ABI3BP
- CDH1-null / parental viability ratio: 1.13
- CDH1-null viability vs mock: 0.87

RNASE7
- CDH1-null / parental viability ratio: 0.74
- CDH1-null viability vs mock: 0.62

STK38L
- CDH1-null / parental viability ratio: 1.01
- CDH1-null viability vs mock: 0.85

ZNF343
- CDH1-null / parental viability ratio: 0.89
- CDH1-null viability vs mock: 0.85

ARHGAP8
- CDH1-null / parental viability ratio: 0.85
- CDH1-null viability vs mock: 0.9

CLCN2
- CDH1-null / parental viability ratio: 1.18
- CDH1-null viability vs mock: 1.2

TAB1
- CDH1-null / parental viability ratio: 0.99
- CDH1-null viability vs mock: 1.01

FGF3
- CDH1-null / parental viability ratio: 0.89
- CDH1-null viability vs mock: 0.94

ATRNL1
- CDH1-null / parental viability ratio: 0.85
- CDH1-null viability vs mock: 0.75

ARHGEF26
- CDH1-null / parental viability ratio: 1.2
- CDH1-null viability vs mock: 0.77

KCNS2
- CDH1-null / parental viability ratio: 1.46
- CDH1-null viability vs mock: 0.7

SLC34A3
- CDH1-null / parental viability ratio: 0.96
- CDH1-null viability vs mock: 0.86

IRF6
- CDH1-null / parental viability ratio: 1.02
- CDH1-null viability vs mock: 0.94

A run of entries from the list above:
TAB1
- CDH1-null / parental viability ratio: 0.99
- CDH1-null viability vs mock: 1.01

FGF3
- CDH1-null / parental viability ratio: 0.89
- CDH1-null viability vs mock: 0.94

ATRNL1
- CDH1-null / parental viability ratio: 0.85
- CDH1-null viability vs mock: 0.75

The list goes on.
CD27
- CDH1-null / parental viability ratio: 0.99
- CDH1-null viability vs mock: 0.82

CSF2
- CDH1-null / parental viability ratio: 0.91
- CDH1-null viability vs mock: 0.91

RTP5
- CDH1-null / parental viability ratio: 1.14
- CDH1-null viability vs mock: 0.56

ZBTB7C
- CDH1-null / parental viability ratio: 1.02
- CDH1-null viability vs mock: 0.61

DRC1
- CDH1-null / parental viability ratio: 0.76
- CDH1-null viability vs mock: 0.62

OTOGL
- CDH1-null / parental viability ratio: 1.1
- CDH1-null viability vs mock: 0.9

GPRC5D
- CDH1-null / parental viability ratio: 1.41
- CDH1-null viability vs mock: 0.96

SIX3
- CDH1-null / parental viability ratio: 0.88
- CDH1-null viability vs mock: 0.69

RBM22
- CDH1-null / parental viability ratio: 0.76
- CDH1-null viability vs mock: 0.56

PHYHIP
- CDH1-null / parental viability ratio: 0.68
- CDH1-null viability vs mock: 0.53

TSLP
- CDH1-null / parental viability ratio: 0.83
- CDH1-null viability vs mock: 0.57

ATL1
- CDH1-null / parental viability ratio: 0.87
- CDH1-null viability vs mock: 0.71

SCN8A
- CDH1-null / parental viability ratio: 1.16
- CDH1-null viability vs mock: 0.88

AQP7
- CDH1-null / parental viability ratio: 1.25
- CDH1-null viability vs mock: 1.16
